Results: paper PMC7819943, “Rice protein-binding microarrays: a tool to detect cis-acting elements near promoter regions in rice”
The other results are listed elsewhere or left out.

target: T1, OsSMF1 (Oryza sativa, UniProt Q6ZLB0 1-436); experiment: protein-binding microarray (RPBM); PBS, 2% BSA, 51.3 ng/ul salmon testes DNA, 50 uM zinc acetate, 200 nM TF, 25 C, 1 h; high values mean tight binding; conditions: protein: recombinant; tags: N-terminal polyhistidine and DsRed monomer fusion (pET32a); chain copies: 2; label: CyDye5-dUTP incorporated in the synthesized complementary strand; 3' TTTTT single-stranded linker to array surface; dsDNA, one strand shown
T1 sequence: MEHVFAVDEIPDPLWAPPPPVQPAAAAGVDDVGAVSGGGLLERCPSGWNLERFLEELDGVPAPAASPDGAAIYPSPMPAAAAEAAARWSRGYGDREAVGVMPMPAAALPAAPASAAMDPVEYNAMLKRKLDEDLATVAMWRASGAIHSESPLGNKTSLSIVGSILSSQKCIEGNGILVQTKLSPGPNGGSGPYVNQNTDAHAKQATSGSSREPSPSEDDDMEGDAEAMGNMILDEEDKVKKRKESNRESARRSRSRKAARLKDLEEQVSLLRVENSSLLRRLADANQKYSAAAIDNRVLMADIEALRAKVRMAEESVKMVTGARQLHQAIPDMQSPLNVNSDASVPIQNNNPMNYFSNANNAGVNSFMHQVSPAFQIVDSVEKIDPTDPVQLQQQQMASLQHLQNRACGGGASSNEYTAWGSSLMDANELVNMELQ
How it was run: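 For the binding signal, per-feature fluorescence intensity was read in arbitrary units on an Axon 4000B scanner. Before scanning, a 2% BSA-blocked custom Agilent array made double-stranded with Cy5-dUTP was washed after 1 h at 25 °C with 200 nM protein and 50 µM zinc acetate. The proteins were Ni–NTA-purified transcription factors with N-terminal polyhistidine and DsRed fusions, expressed in E. coli BL21-CodonPlus.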

| Sequence | binding signal |
| --- | --- |
| ATTTCGTCGAGGCTAGGGTGACATATCTTAAGATTGATGACGGAGTCACCTAGTGCAG | 3290 fluorescence intensity (a.u.) |
| ACGCCAGATTTGTCCAACGTGACGGCTGAGTCAGCGTGGACGGAGTCACCTAGTGCAG | 9270 fluorescence intensity (a.u.) |
| GCAAACAATTGGCGTCAATGCGTCATGCGCATCAGCGCATCGGAGTCACCTAGTGCAG | 7650 fluorescence intensity (a.u.) |
| AGCATTTCCATCCACCACACGCGTACGTCCCCGTCACGCGCGGAGTCACCTAGTGCAG | 7440 fluorescence intensity (a.u.) |
| TGGACTCCTGTGGGTCTCACGTGTAGTCAAACTTGCCTTGCGGAGTCACCTAGTGCAG | 4460 fluorescence intensity (a.u.) |
| CCGCCTGCGAAAATGGATGATTTTCACCGTCGTTGGTCTGCGGAGTCACCTAGTGCAG | 3350 fluorescence intensity (a.u.) |
| ACAACAAATCCAAGTGTACGTACGTACGTACACCGTGCACCGGAGTCACCTAGTGCAG | 3390 fluorescence intensity (a.u.) |
| GAAGGCTTGTTGCATCACGATCTGAAGTTCGGGTCCATATCGGAGTCACCTAGTGCAG | 3990 fluorescence intensity (a.u.) |
| ATGTTTTATGCACTTGTTTCACTGTCACATCCATTGTATGCGGAGTCACCTAGTGCAG | 3770 fluorescence intensity (a.u.) |
| CATGTGAACCTGTGACTCATCTGATGAGCCTTGCTTGGAGCGGAGTCACCTAGTGCAG | 10900 fluorescence intensity (a.u.) |
| AGATTGCCAATTGTTTAACACGTGTGAGTATTATATGTAACGGAGTCACCTAGTGCAG | 3660 fluorescence intensity (a.u.) |
| TGGCTGACTGCTTGTCAACGTGGATCATCATCATACAGATCGGAGTCACCTAGTGCAG | 4880 fluorescence intensity (a.u.) |
| CGGGTGTACGAGGACTACCCACTGACACGTGGGCCCCACTCGGAGTCACCTAGTGCAG | 12400 fluorescence intensity (a.u.) |
| TTTCACTCTCGCGAACCTTCCACACACAGACTAGGAGCTTCGGAGTCACCTAGTGCAG | 32500 fluorescence intensity (a.u.) |
| CATGACACATCAGCGCCGCGCTGCCACATAGGATCTCGCTCGGAGTCACCTAGTGCAG | 14000 fluorescence intensity (a.u.) |
| GGCGCTGGTATTGATGCGTCATTTTCATCTATTTGCATTTCGGAGTCACCTAGTGCAG | 6020 fluorescence intensity (a.u.) |
| GGTGGAGGACCCGCAGCCGCTGGCGATGGCGTGGATGATGCGGAGTCACCTAGTGCAG | 20700 fluorescence intensity (a.u.) |
| GCCTCCCAGTTCGACAGGTTCATGGACCACGTGTTGCATCCGGAGTCACCTAGTGCAG | 5550 fluorescence intensity (a.u.) |
| TAGAAGTTTCTGAACATGTGTCTGATTATCCTATGCCTGCCGGAGTCACCTAGTGCAG | 3280 fluorescence intensity (a.u.) |
| ATCGAGGTCCCCTGCCCGCACACTTCGCGTCAGCTGCTGCCGGAGTCACCTAGTGCAG | 3590 fluorescence intensity (a.u.) |
| TTGTAGTCGGATCGCCAACGTCACTCCATCCAATCGACTTCGGAGTCACCTAGTGCAG | 5780 fluorescence intensity (a.u.) |
| GGCCCAACACACATGGGCCTCAAGTAAGTGGCAATTCCGTCGGAGTCACCTAGTGCAG | 3240 fluorescence intensity (a.u.) |
| CTATATATACATACCGTGGCCATGGCAGTACGTAAGGCACCGGAGTCACCTAGTGCAG | 3260 fluorescence intensity (a.u.) |
| CCGCATGCTCCAGGACCAGTTCAACGTCAGCATGAACCACCGGAGTCACCTAGTGCAG | 4970 fluorescence intensity (a.u.) |
| AAAACCCTAGACACCTCCTAGTCATCAATGCCTATGTAGTCGGAGTCACCTAGTGCAG | 30500 fluorescence intensity (a.u.) |
| GGACAAGTGGTGAAGGAGATATCGAGTCGGCGTCATGGCCCGGAGTCACCTAGTGCAG | 4300 fluorescence intensity (a.u.) |
| AAAATCCATTAAAAGGAAAACCTTTGAAAGTCTAATATTTCGGAGTCACCTAGTGCAG | 3540 fluorescence intensity (a.u.) |

| Sequence | binding signal |
| --- | --- |
| ATGCATGCAGATGACGATCATGACATTGCGTGTTTGAATCCGGAGTCACCTAGTGCAG | 3810 fluorescence intensity (a.u.) |
| TCCAAATTAGCGTCCAAACATCCGATGTGACATGGGCTAACGGAGTCACCTAGTGCAG | 3500 fluorescence intensity (a.u.) |
| AAAACGCCACGTGGTGGTTTAGGAGCGTTTATAGTAAGACCGGAGTCACCTAGTGCAG | 23100 fluorescence intensity (a.u.) |
| AGGTCGATGGCGTCGCGTGGCTCATCCGCCGCTACCAACTCGGAGTCACCTAGTGCAG | 3280 fluorescence intensity (a.u.) |
| AAATACCGTAGTTTTCATCACGTCAGGTACGTGGTAGGTTCGGAGTCACCTAGTGCAG | 3340 fluorescence intensity (a.u.) |
| ACCGGAGCACCGCCGATTCAAACCTGGCCTCGCCGGCGCCCGGAGTCACCTAGTGCAG | 3160 fluorescence intensity (a.u.) |
| GAATGTGTCTTGTGTGGAATATTTTCTTTCCTTCGCTGAGCGGAGTCACCTAGTGCAG | 3460 fluorescence intensity (a.u.) |
| ACAAACATGATAAGGCTGCTATTCGTTGGAAACCGTAATCCGGAGTCACCTAGTGCAG | 3290 fluorescence intensity (a.u.) |
| AATATACTACAATACCACCGTACCACGTATCAAAACAAATCGGAGTCACCTAGTGCAG | 3500 fluorescence intensity (a.u.) |
| GTCCCAGAATCAGCCGCATACGTAGGCGGGCCCCGCAAGTCGGAGTCACCTAGTGCAG | 4040 fluorescence intensity (a.u.) |
| TATCTTAGGCCTCCTCCAACAAGGATGAGTCAGCTAGCTCCGGAGTCACCTAGTGCAG | 13100 fluorescence intensity (a.u.) |
| AAGTCCGCAAGGGCCGCGCGCACGTGGGCGCGGTGCGGGTCGGAGTCACCTAGTGCAG | 3910 fluorescence intensity (a.u.) |
| AACCGTCGACACGCGCGCGACCATTCGATCACTCCACGACCGGAGTCACCTAGTGCAG | 3730 fluorescence intensity (a.u.) |
| ACAACTTACAACTTGTCCTCCAGGGCAAACTTTAGTCGCCCGGAGTCACCTAGTGCAG | 24300 fluorescence intensity (a.u.) |
| TACAACTATACTGAGTATTGTCTAGTCAGTGTTCCCTTAACGGAGTCACCTAGTGCAG | 4290 fluorescence intensity (a.u.) |
| TCATAATATATATATATATATATATATATAGACTGCGTGTCGGAGTCACCTAGTGCAG | 5140 fluorescence intensity (a.u.) |
| GGTGTCACGTAAGCGCCACGTCAGCGAACCGCCCTCCAAACGGAGTCACCTAGTGCAG | 26600 fluorescence intensity (a.u.) |
| GTTTTGCATTCTTTTGTTCATGACTGTGATGTACACTTGTCGGAGTCACCTAGTGCAG | 3290 fluorescence intensity (a.u.) |
| GCCGTTGTCCGAAGGTTCAGCATATTGCTGACATATTGCCCGGAGTCACCTAGTGCAG | 4940 fluorescence intensity (a.u.) |
| GCCGGTGATCATGGCCCAAGTCAATCGTCACAAGCTCCACCGGAGTCACCTAGTGCAG | 3740 fluorescence intensity (a.u.) |
| ACTGTAAATTGCGAGACGAATCTTTTGAGCCTAATTATGCCGGAGTCACCTAGTGCAG | 27400 fluorescence intensity (a.u.) |
| GCCGACCTCCCACCCCAGGCGATGGCATCCAGATCAGCTCCGGAGTCACCTAGTGCAG | 14800 fluorescence intensity (a.u.) |
| TAGGCCGGTGTGCGCGACGGTGCTGACGCGTAAGAAGTGCCGGAGTCACCTAGTGCAG | 7160 fluorescence intensity (a.u.) |
| CCGAATTTGTAGCCTTACAATCAGCCAAGTCAGCACCCGCCGGAGTCACCTAGTGCAG | 10400 fluorescence intensity (a.u.) |
| CACGTGGGTCCCACGCTGATTGGGCTGCCACGTCAGACAACGGAGTCACCTAGTGCAG | 24600 fluorescence intensity (a.u.) |
| AGTGGCGTAGGTGGCATCAACCTAGCGGTGGAGGCGGTATCGGAGTCACCTAGTGCAG | 3680 fluorescence intensity (a.u.) |
| ATACGTGCCAAATCAGAGAAAACTGGGCCCACGTGTGAACCGGAGTCACCTAGTGCAG | 6420 fluorescence intensity (a.u.) |
